{"source": "patent US9228991B2", "about": "“Methods and kits for detection of drugs” (RAMOT AT TEL-AVIV UNIVERSITY LTD., priority 2010, dated 2016)", "origin": "cited, not measured here", "conditions": "cited from earlier work", "note": "Where two headings read alike, the source gives them in different places. At least one structure is not confirmed: it was looked up by name or label, or the drawing left a doubt.", "data": [{"smiles": "O=C(O)CCCO", "note": "[GHB, gamma-hydroxybutyrate]", "values": [{"measurement": "Physical Effect", "setting": "GHB dose 1-2 grams (moderate), 1-2% in drink", "value": "Strong mental and physical"}, {"measurement": "Physical Effect", "setting": "GHB dose <1 gram (low), <1% in drink", "value": "Mild relaxant"}]}]}
